{"sequences": {"note": "Protein sequences, listed by entry. Tags and fused reporters are not part of them. Residues count along the entry.", "UniProt P20138, residues 18-259": "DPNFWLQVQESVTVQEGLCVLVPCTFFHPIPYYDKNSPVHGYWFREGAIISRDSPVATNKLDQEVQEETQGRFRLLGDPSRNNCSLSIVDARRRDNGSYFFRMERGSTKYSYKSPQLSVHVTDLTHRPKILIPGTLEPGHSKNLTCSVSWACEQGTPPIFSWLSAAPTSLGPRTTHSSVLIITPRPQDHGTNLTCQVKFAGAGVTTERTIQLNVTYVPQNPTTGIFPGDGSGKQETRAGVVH"}, "source": "patent EP4595978A1", "about": "“ANTI-CD33 ANTIBODY AND ANTI-CD33 ANTIBODY-DRUG CONJUGATE AND USE THEREOF” (SystImmune, Inc., priority 2022, dated 2024)", "binders": {"B1": {"name": "anti-CD33 naked antibody (Antibody 2) (antibody, human IgG1, kappa, V domains shown)", "VH": "EVQLVQSGAEVKKPGSSVKVSCKASGYTITDSNIHWVRQAPGQSLEWIGYIYPYNGGTDYNQKFKNRATLTVDNPTNTAYMELSSLRSEDTAFYYCVNGNPWLAYWGQGTLVTVSS", "VL": "DIQLTQSPSTLSASVGDRVTITCRASESLDNYGIRFLTWFQQKPGKAPKLLMYAASNQGSGVPSRFSGSGSGTEFTLTISSLQPDDFATYYCQQTKEVPWSFGQGTKVEVKR"}}, "key": {"[1]": {"target": "T1, recombinant human CD33 protein (Homo sapiens, UniProt P20138)", "test": "ELISA on recombinant human CD33 (figure legend)"}, "[2]": {"target": "T1, recombinant human CD33 protein", "test": "ELISA, recombinant human CD33 coated at 0.5 ug/mL"}}, "note": "No constants are given. Whether binding was seen depends on the method and setting. Some entries that bind do so weakly or less than the wild type.", "data": [{"binder": "B1", "values": [{"measurement": "binding", "setting": "[1]", "result": "binds"}, {"measurement": "binding", "setting": "[2]", "result": "binds"}]}]}
